Results taken from article PMC8162438, “Cancer cell-selective modulation of mitochondrial respiration and metabolism by potent organogold(III) dithiocarbamates” (Chemical Science, 2020).

System: MDA-MB-231
Assay: Differential gene expression by RNA-sequencing
Format: cell-based
Conditions: MDA-MB-231, 1 μM, 12 h

`C[N+](C)=C1[S][Au-2]2([S]1)[c]1ccccc1Cc1cccc[n+]12.F[P-](F)(F)(F)(F)F` (stereo not drawn) [2a] was tested, and the “Differentially expressed genes (DEG), total” value was 3019, the Downregulated genes was 1423 and the Upregulated genes was 1596.
